Measured values reported in article doi:10.1101/668509.
These are yes or no findings as the source states them, for the method shown. Some results given as binding are weak or reduced against the parent protein; the word gives no strength.

By UniProt entry, the sequences of proteins in these tests, tags left out. Residues count along the entry.
UniProt P08050, residues 255-382: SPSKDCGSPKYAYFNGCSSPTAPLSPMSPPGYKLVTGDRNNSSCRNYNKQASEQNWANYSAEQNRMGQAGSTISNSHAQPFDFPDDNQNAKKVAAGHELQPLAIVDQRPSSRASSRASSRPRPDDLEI

Target: Cx43 CT (UniProt P08050)
Assay: protein thermal shift

Binder: RPRPDDLEI (biotin (biotin-αCT11 in the kinase assay)) [αCT11]
- binding: binds
